# Screen size: about 1,800 compounds; about 710 (39%) were called active. The shares of active, inactive and inconclusive entries below differ from those in the screen.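 How the source made its calls: active means luciferase signal rise whose fitted curve crosses a set activity limit at or below the top valid tested dose; inconclusive means flat fit with 30 to 70% rise, or poor fit; inactive means signal falling, flat within 30%, or crossing above top dose.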
# Experiment: luciferase activators in glycosylation-insensitive reporter cells, dose response, counter-screen for N-linked glycosylation inhibitor project, D54 LucT cells, luminescence, cherry pick (AID 624404);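 further: 0% = median neutral control signal and 100% = twice that signal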
# Conditions: D54 LucT luciferase reporter counterscreen, 24 h; at 19.5 µM (top of the series) unless noted
row,Compound,activity increase (luciferase signal)
1,CCC1C(c2cc(OC)c(OC)c(OC)c2)c2cc3c(cc2OC1N1CCCC1)OCO3 (stereo unspecified),inconclusive: 7.69%
2,CC[n+]1c(/C=C/C=C/c2ccc(N(C)C)cc2)sc2ccccc21,inconclusive: 35.3%
3,CC(=O)OC12COC1CC(O)C1(C)C(=O)C(O)C3=C(C)C(O)CC(O)(C(OC(=O)c4ccccc4)C21)C3(C)C (stereo unspecified),inconclusive: 77.9%
4,O=C1NC(=O)C(=Cc2c(Cl)cccc2Cl)C(=O)N1,inconclusive: 62.2%
5,C=C(C)[C@@]12OC3(c4ccccc4)O[C@@H]1C1[C@@H]4O[C@]4(CO)[C@@H](O)[C@]4(O)C(=O)C(C)=C[C@H]4[C@@]1(O3)[C@H](C)[C@H]2OC(=O)/C=C/C=C/c1ccccc1 (stereo partly specified),inconclusive: 66.4% [at 5 µM]
6,O=C1NC(=O)N(c2ccccc2)C(=O)/C1=C\C=C\c1ccccc1,inconclusive: 40.8%
7,COc1cc([C@@H]2c3cc4c(cc3[C@@H](OC)[C@H]3COC(=O)[C@H]23)OCO4)cc(OC)c1O,inconclusive: 27.5%
8,Nc1nonc1C(=O)N/N=C/c1ccc([N+](=O)[O-])o1,inconclusive: 69.3%
9,COc1cc2c(c(OC)c1OC)-c1ccc(O)cc1[C@@H](NC(C)=O)CC2,inconclusive: 9.25%
10,CCNCCNc1ccc([N+](=O)[O-])c2cccnc12,inconclusive: 47.7%
11,CN1CCc2nc3sc(C#N)c(N)c3c(-c3cccs3)c2C1,inconclusive: -4.21%
12,Cc1ccc2c(C)c3ccc4ccccc4c3c[n+]2c1,inconclusive: 10.3%
13,Clc1cccc(N2Cc3cc(-c4ccccc4)ccc3-n3nncc3C2)c1,inconclusive: 50.1%
14,CN=C(SCC(=O)c1cccc(Cl)c1)c1c(O)n(C)c(=O)n(C)c1=O,inconclusive: 13.5%
15,O=c1[nH]c(O)c(/C=C2/C=CC(c3cc(Cl)ccc3Cl)=N2)c(=O)[nH]1,inconclusive: 68.3%
16,CC(=O)O[C@H]1C(=O)[C@@]2(C)C([C@H](OC(=O)c3ccccc3)[C@]3(O)C[C@H](O)C(C)=C1C3(C)C)[C@]1(OC(C)=O)CO[C@@H]1C[C@H]2O (stereo partly specified),inconclusive: 39.9%

# Pulled one by one from the entries so far, 2 records:
row,Compound,activity increase (luciferase signal)
6,O=C1NC(=O)N(c2ccccc2)C(=O)/C1=C\C=C\c1ccccc1,inconclusive: 40.8%
3,CC(=O)OC12COC1CC(O)C1(C)C(=O)C(O)C3=C(C)C(O)CC(O)(C(OC(=O)c4ccccc4)C21)C3(C)C (stereo unspecified),inconclusive: 77.9%
